# Results are given in words; binding and its absence hold for the method and conditions named. Binding seen in cells or lysates may run through a third protein. Some results given as binding are weak or reduced against the parent protein; the word gives no strength.
# The chains behind the UniProt entries cited, without tags or fusion partners.
# UniProt O09106: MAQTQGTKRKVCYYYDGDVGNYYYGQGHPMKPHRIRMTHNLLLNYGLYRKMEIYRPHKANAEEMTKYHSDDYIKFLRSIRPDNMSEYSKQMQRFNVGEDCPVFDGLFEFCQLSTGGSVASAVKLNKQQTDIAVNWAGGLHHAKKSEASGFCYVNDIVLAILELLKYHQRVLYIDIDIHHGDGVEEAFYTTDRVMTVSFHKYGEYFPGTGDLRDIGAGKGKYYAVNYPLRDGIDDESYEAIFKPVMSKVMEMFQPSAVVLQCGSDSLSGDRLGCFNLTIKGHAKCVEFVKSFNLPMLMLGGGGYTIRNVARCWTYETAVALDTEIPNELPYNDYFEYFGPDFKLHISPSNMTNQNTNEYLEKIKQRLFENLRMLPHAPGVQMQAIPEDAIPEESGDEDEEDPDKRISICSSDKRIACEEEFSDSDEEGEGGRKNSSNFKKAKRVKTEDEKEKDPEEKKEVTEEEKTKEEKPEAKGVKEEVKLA
# UniProt P23804: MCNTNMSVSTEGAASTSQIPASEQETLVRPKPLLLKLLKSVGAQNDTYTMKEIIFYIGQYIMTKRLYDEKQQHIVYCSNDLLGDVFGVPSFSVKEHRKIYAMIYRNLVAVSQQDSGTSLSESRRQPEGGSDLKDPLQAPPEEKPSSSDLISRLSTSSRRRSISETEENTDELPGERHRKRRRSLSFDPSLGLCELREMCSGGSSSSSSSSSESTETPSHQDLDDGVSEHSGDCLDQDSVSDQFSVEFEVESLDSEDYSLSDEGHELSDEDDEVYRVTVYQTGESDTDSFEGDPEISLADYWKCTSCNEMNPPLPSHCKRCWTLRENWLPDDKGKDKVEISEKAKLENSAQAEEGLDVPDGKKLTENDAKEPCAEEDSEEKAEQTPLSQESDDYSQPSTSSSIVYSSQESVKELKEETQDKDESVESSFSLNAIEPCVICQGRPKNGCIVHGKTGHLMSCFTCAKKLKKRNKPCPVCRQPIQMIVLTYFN
# Molecular target: histone deacetylase 1 (HDAC1), endogenous (mouse (endogenous in liver)) (UniProt O09106)
# Experiment: co-IP; endogenous proteins in mouse liver lysates (Rack1 F/F and Rack1 Δhep livers for HDAC1-MDM2); IP with an anti-HDAC1 or an anti-RACK1 antibody, control rabbit IgG; immunoblotting
substance,measurement,value
"mouse double minute 2 (MDM2), endogenous (from UniProt P23804 1-489)",binding,binds

# Reference: PMC8899575
